Measurements as given in PubChem BioAssay AID2685 (National Center for Advancing Translational Sciences (NCATS), 2010).
Out of some 320,000 compounds screened, about 2,100 (0.66%) were called active. Inconclusive results, whose numbers are uncertain, are shown with a selection of clear calls. Calls come from the whole dose curve; as a rule, active = well fitted inhibition curve with a large enough effect in the signal ratio, with a control signal flat (not every such curve was filed as active); inconclusive = small, poorly fitted or top-dose-only effect, or effect the other way, or a change in a side signal; inactive = flat fitted curve, though single readings scatter; the % refers to the signal ratio. Potencies beside an inconclusive call are fits to weak or partial responses and may not hold up.

test: qHTS Assay for Lipid Storage Modulators in Drosophila S3 Cells; details: BODIPY lipid droplet fluorescence, 18-24 h, cells fed with added oleic acid; lipid storage change, negative = inhibition: at 46.1 µM (top of the series) unless noted
Outline: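 Laser-scanning cytometry quantifies lipid droplet accumulation (500–530 nm total intensity; droplet/cell object ratio) in oleic acid-fed (400 uM added) Drosophila S3 cells treated with a concentration series. 20 uM Triacsin C defined 100% inhibition.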
% is set by controls: 0 for no effect and ±100 for the full control effect; potency is the fitted concentration of half-maximal effect.

Row | SMILES | Potency | lipid storage change, negative = inhibition
1 | COc1cccc(C(=O)NCC2CCCN(C3CCCCC3)C2)c1OC (configuration not stated) | inconclusive: 4.61 µM [falling, single point] | –
2 | CN(c1ccccc1)S(=O)(=O)c1ccc(C(=O)NNC(=O)c2ccccc2F)cc1 | inconclusive: 4.61 µM [activator, full curve, poor fit] | –
3 | CCCCn1c(C)cc2c(c1=O)C1O[C@](c3ccsc3)(Cc3ccccc31)O2 | – | inconclusive: -5.5% [at 9.22 µM]
4 | COc1cc(C[C@H](C)[C@H](C)Cc2ccc3c(c2)OCO3)ccc1O | – | inconclusive: -23.1%
5 | CCOCCCn1c(=S)[nH]c2cc(C(=O)N3CCN(C)CC3)ccc2c1=O | inconclusive: 2.59 µM [falling, partial curve] | –
6 | COc1ccc(N/C=C\C(=O)c2ccc3c(c2)OCO3)cc1OC | – | inconclusive: -45.7%
7 | CNS(=O)(=O)/C=C/c1ccccc1 | – | inconclusive: -37.4%
8 | Cc1ccc(-c2nc3[nH]c(=O)cc(NC(=O)C(C)C)n3n2)cc1 | – | inconclusive: 14%
9 | Nc1cc(C(F)(F)F)ccc1NCCc1ccccn1 | – | inconclusive: -22.6%
10 | Fc1ccc(N2CCN(C(=S)NCC3CCCO3)CC2)cc1 (configuration not stated) | – | inconclusive: 113%
11 | CCOCCCNC(=S)N1C2CCC1CC(NC(=O)NC13CC4CC(CC(C4)C1)C3)C2 (configuration not stated) | – | inconclusive: -21.2%
12 | CCCNC(=O)c1ccc2c(=O)c(O)c(-c3ccc(F)cc3)[nH]c2c1 | inconclusive: 5.8 µM [falling, full curve] | –
13 | Cc1oc(-c2ccc(Cl)cc2)nc1CS(=O)CC(=O)NC(C)c1ccccc1 (configuration not stated) | – | inconclusive: 12.1%
14 | CCn1cc(S(=O)(=O)CC(=O)Nc2ccc(OC)cc2)c2ccccc21 | – | inconclusive: 18.3%
15 | COc1cccc(/C=C/C(=O)Nc2cccc(C(C)=O)c2)c1OC | – | inconclusive: -1.97%
16 | CCOc1ccccc1NC(=O)N1CCCC1C(=O)NCc1cccs1 (configuration not stated) | – | inconclusive: 10.5%
17 | N/C(Cc1ccc([N+](=O)[O-])cc1)=N\OC(=O)CC1CCCCC1 | – | inconclusive: -11.8%
18 | Cc1ccc(CS(=O)(=O)CCC(=O)O)cc1 | – | inconclusive: -13.4%
19 | Cc1ccc(NC(=O)OCCN2CCN(Cc3ccccc3)CCC2=O)cc1 | inconclusive: 13 µM [activator, partial curve] | –
20 | COc1cc(NC(=O)c2ccc(Cl)cc2)c(OC)cc1NC(=O)CN1CCOCC1 | – | inconclusive: 24.7%
21 | CCc1nnc(NC(=O)Cn2nc(-c3ccc(OC)c(OC)c3)ccc2=O)s1 | – | inconclusive: -1.27%
22 | CCCN1CCN(c2ccc(S(N)(=O)=O)cc2[N+](=O)[O-])CC1 | – | inconclusive: -3.15%
23 | O=C(Nc1ccc(F)cc1)N(Cc1cccs1)Cc1cc2cc3c(cc2[nH]c1=O)OCO3 | – | inconclusive: 13.2%
24 | O=C(Nc1nnc(-c2cccs2)o1)c1ccco1 | inconclusive: 0.731 µM [falling, full curve] | –
25 | O=C1C(Cl)=C(N2CCCCCC2)C(=O)N1c1ccc(Cl)cc1 | – | inconclusive: -83.9%
26 | C=C(C)C(=O)Nc1cccc(C2=NOC3(C2)C[C@H](C(N)=O)N(C(=O)c2ccccc2)C3)c1 (some centres not stated) | – | inconclusive: 9.84%

Row | SMILES | Potency | lipid storage change, negative = inhibition
27 | CCOc1ccccc1NC(=O)CCc1nnc2ccc(N3CCC(C)CC3)nn12 | – | inconclusive: 15%
28 | CC(=O)c1cc(C#N)c(SCC(=O)OC(C)(C)C)nc1C | – | inconclusive: 33.3%
29 | C[C@@H]1NC(=O)[C@H](CCC(N)=O)NC(=O)c2cc([N+](=O)[O-])cc(I)c2NCCC[C@@H](C(N)=O)NC1=O | – | inconclusive: -6.58%
30 | COc1ccc(NC(=O)C(=O)NNC(=O)COc2ccc(Cl)cc2)c(OC)c1 | inconclusive: 22.4 µM [activator, single point] | –
31 | COc1ccc(OCC(=O)NNC(=O)c2cccnc2)cc1 | – | inconclusive: 7.28%
32 | CCC1=NC(c2ccccc2OC)N(O)C1(C)C (configuration not stated) | – | inconclusive: -36.6%
33 | Cc1ccc(C(=O)NCCCc2ccccc2)s1 | – | inconclusive: 26.2%
34 | Cc1ccc2c(c1)C1CN(C)CCC1N2C(=O)c1cccc(S(=O)(=O)N2CC(C)CC(C)C2)c1 (configuration not stated) | – | inconclusive: 31.5%
35 | O=C(OCC(=O)N1CCCC1)c1ccc(Cl)c([N+](=O)[O-])c1 | – | inconclusive: 18.6%
36 | C=CCNc1nc(C(=O)OCC(=O)c2ccc(Cl)cc2)cs1 | – | inconclusive
37 | COC(=O)C1C(=O)C(C(=O)/C=C/c2ccccc2)C(=O)CC1(C)C (configuration not stated) | – | inconclusive: 18.5%
38 | CCOc1ccc(-c2csc(NC(=O)c3cccc(N4C(=O)CCC4=O)c3)n2)cc1 | – | inconclusive: 13.6%
39 | O=C(NCc1cccs1)C1CCC(CNS(=O)(=O)c2cccc3nsnc23)CC1 (configuration not stated) | – | inconclusive: 2.44%
40 | COc1cccc(C(=O)NCC(=O)NCc2cc(=O)n(C)c(=O)n2C)c1 | inconclusive: 0.103 µM [activator, full curve, poor fit] | –
41 | CCCCCCC(=O)Oc1ccc(N2C(=O)CCC2=O)cc1 | – | inactive: 0.0787%
42 | CCc1ccc(OCC(=O)OCC(=O)c2c(N)n(C)c(=O)n(C)c2=O)cc1 | inconclusive: 0.164 µM [falling, full curve, poor fit] | –
43 | COc1ccc(N(C(=O)Cn2cnc3ccccc32)C(C(=O)NC2CCCCC2)c2ccccc2)cc1 (configuration not stated) | – | inconclusive: -1.64%
44 | O=P(Cc1ccccc1)(c1ccccc1)c1ccccc1 | – | inconclusive: 1.6%
45 | O=C(Cc1ccc(-c2ccccc2)cc1)N1CCOCC1 | inconclusive: 23.1 µM [falling, single point] | –
46 | O=C1NC(=O)C2C1C(c1ccc([N+](=O)[O-])cc1)=NN2Cc1ccccc1 (configuration not stated) | – | inconclusive: 1.26%
47 | CCN(Cc1ccccc1)Cc1cc(OC)cc(OC)c1 | inconclusive: 0.0046 µM [falling, full curve, poor fit] | –
48 | COc1ccccc1CN(C(=O)c1cnccn1)C(C(=O)NC1CCCCC1)c1cc(OC)c(OC)c(OC)c1 (configuration not stated) | inconclusive: 0.0046 µM [activator, full curve, poor fit] | –
49 | COCC(=O)N1CCC(Oc2ccc(C(=O)NC3Cc4ccccc4C3)cc2)CC1 | inconclusive: 2.59 µM [activator, single point] | –
50 | O=C(CSc1ccccn1)Nc1ccc(Cl)c([N+](=O)[O-])c1 | – | inconclusive: -1.52%
51 | Cc1cc(C)nc(SCC(=O)N(C)CC(=O)Nc2c(Cl)cccc2Cl)n1 | – | inconclusive
52 | Cc1ccc(CNC(=O)c2ccc(CS(=O)Cc3ccccc3Cl)o2)cc1 (configuration not stated) | inconclusive: 4.61 µM [activator, single point] | –

Row | SMILES | Potency | lipid storage change, negative = inhibition
53 | COc1cc(Cl)c(C)cc1NC(=O)COC(=O)c1cc[n+]([O-])cc1 | – | inconclusive: 0.618%
54 | O=C(c1cccc(OC2CCN(C3CCCC3)CC2)c1)N1CCCCCCC1 | – | inconclusive: 7.21%
55 | N#Cc1c(NC(=O)CSc2nc(N)cc(=O)[nH]2)sc2c1CCCC2 | – | inconclusive: 2.96% [at 9.22 µM]
56 | C=CCn1c(SCC(=O)NC2CCCC2)nc2c([nH]c3ccccc32)c1=O | – | inconclusive: 3.93%
57 | COCCOC(=O)c1c(NC(=O)CN2CCOCC2)sc(C(N)=O)c1C | inconclusive: 4.11 µM [activator, partial curve] | –
58 | CSc1ncccc1C(=O)N1CCN(S(=O)(=O)c2ccccc2)CC1 | – | inconclusive: -44.7%
59 | COC(=O)CSc1nc(C)cc(C(F)(F)F)c1C#N | – | inconclusive: 16.4%
60 | O=C(O)c1c2c(nc3ccccc13)/C(=C/c1ccc(OC(F)F)cc1)CCC2 | – | inconclusive: 0.396%
61 | CCC(=O)c1cn(CC(=O)Nc2ccccc2F)c2ccccc12 | – | inconclusive: 31.5%
62 | Cc1cccc(-n2ncc3c(N4CC(C)CC(C)C4)ncnc32)c1 (configuration not stated) | inconclusive: 0.366 µM [activator, full curve, poor fit] | –
63 | CC1(C)CC2(CC(c3ccccc3)c3ccc(O)cc3O2)NC(=S)N1 (configuration not stated) | – | inconclusive: -13.2%
64 | COc1cc2cc(CCCOC(=O)CCCC(=O)O)oc(=O)c2cc1OC | – | inconclusive: 7.57%
65 | Cc1ccc(C(=O)CCc2ccc(N)cc2)cc1 | – | inconclusive: 3.07%
66 | O=Cc1ccc(OCCN2CCCC2=O)cc1 | inconclusive: 29.1 µM [activator, single point] | –
67 | Cc1ccc(NS(=O)(=O)c2ccc(Cl)nc2)c(C)c1 | – | inconclusive
68 | CN(C)Cc1cc(CN(C)C)c(O)c(CCc2ccccc2)n1 | inconclusive: 4.11 µM [falling, full curve] | –
69 | O=C(Cn1cc(C(F)(F)F)ccc1=O)N/N=C/c1ccccc1O | – | inconclusive: -10.1%
70 | CN(C)S(=O)(=O)c1ccc(N2CCCC2)c(C(=O)NCc2cccc(C(F)(F)F)c2)c1 | inconclusive: 6.51 µM [falling, partial curve, poor fit] | –
71 | Cc1ccc(Cl)cc1N1CCN(C(=O)C2CCN(S(C)(=O)=O)CC2)CC1 | inconclusive: 4.11 µM [rising, partial curve, poor fit] | –
72 | Cc1cc(C)cc(N(CC(=O)Nc2cccc(C)c2C)S(=O)(=O)c2c(C)[nH]c(=O)[nH]c2=O)c1 | inconclusive: 29.1 µM [activator, single point] | –
73 | Cc1ccc2c(c1)N(S(=O)(=O)c1ccc(F)cc1)C(C(C)(C)C)CO2 (configuration not stated) | – | inconclusive: 55.5%
74 | COc1ccc(-c2ccc3c(N)c(C(=O)NC(C)C)sc3n2)cc1OC | – | inconclusive: -5.54%
75 | COCCN(C(=S)Nc1ccc(C(C)C)cc1)C(C)c1cccs1 (configuration not stated) | – | inconclusive: 20.8%
76 | CC(C)Oc1ccc(CNC(=O)c2ccc3nc(N4CCOCC4)sc3c2)cc1 | – | inconclusive: 43.3%
77 | O=C(Cn1c(=O)[nH]c2ccccc2c1=O)N1CCN(Cc2ccc3c(c2)OCO3)CC1 | inconclusive: 29.1 µM [activator, single point] | –
